Patent US8188108B2, “Pharmaceutical composition” (priority 2002, dated 2012)
At least one read-out could not be matched to a standard name with certainty.

Details: fed vs fasting

CC(=O)Nc1ccc(O)cc1 [Acetaminophen, acetaminophen]
effect of food on extent of exposure (AUC): does not affect the extent of exposure

CCCCC(CC)COC(=O)CC(C(=O)OCC(CC)CCCC)S(=O)(=O)O (centres unmarked) [Docusate, dioctyl sodium sulphosuccinate]
effect of food on extent of exposure (AUC): tends to increase the extent of exposure
